Test results as given in US20230106174A1, “RAS INHIBITORS” (Revolution Medicines, Inc., priority 2021, published 2023).
Some of these results come from one statement about several compounds together.

Tested on: K-Ras G12C or K-Ras G13C
Experiment: Cross-linking of Ras proteins with compounds (covalent adduct, mass spectrometry, % bound)
Assay type: biochemical
Conditions: incubation timeframe of 4 hours; with respect to K-Ras G12C or K-Ras G13C

| SMILES | cross-linking percent [%] |
| --- | --- |
| C=CC(=O)N1CC[C@@H]2CN(C(=O)N(C)[C@H](C(=O)N[C@H]3Cc4nc(cs4)-c4ccc5c(c4)c(c(-c4cccnc4[C@H](C)OC)n5CC)CC(C)(C)COC(=O)[C@@H]4CCCN(N4)C3=O)C(C)C)C[C@@H]2C1 (atropisomer, axis not shown) [Example A168] | ≤ 0 |
| C=CC(=O)N1CC[C@H]2CN(C(=O)N(C)[C@H](C(=O)N[C@H]3Cc4nc(cs4)-c4ccc5c(c4)c(c(-c4cccnc4[C@H](C)OC)n5CC)CC(C)(C)COC(=O)[C@@H]4CCCN(N4)C3=O)C(C)C)C[C@H]2C1 (atropisomer, axis not shown) [Example A170] | ≤ 0 |
